Measured values: PubChem BioAssay AID504444 (National Center for Advancing Translational Sciences (NCATS), 2011)
Out of some 360,000 compounds screened, about 7,500 (2.1%) were called active. The inconclusive results got no clear call from the source; some entries with a clear call stand among them for comparison. Calls follow the shape of the dose curve; as a rule, active = well fitted inhibition curve with a large enough effect; inconclusive = small, poorly fitted or top-dose-only effect, or effect the other way; inactive = flat fitted curve, though single readings scatter. Potencies of inconclusive entries are doubtful fits and often do not repeat.

Experiment: Nrf2 qHTS screen for inhibitors; also: nearly all actives have a fitted effect of over 60% in size
Conditions: A549 ARE-Fluc reporter, luciferase luminescence, 18-24 h; activity change, negative = inhibition: at 46 µM (top of the series)
How it was run: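 Quantitative HTS in A549 cells stably bearing an antioxidant response element-firefly luciferase construct. Inhibition of Nrf2-driven transcription was scored by luminescence after 18-24 h of compound exposure at 37 °C.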
% is scaled to controls: 0 for no effect and ±100 for the full control effect; potency is read from the fitted curve at half-maximal effect.

**Q.** Which Potency does the source give for `CCOC(=O)c1c(C)[nH]c(C)c1C(=O)COC(=O)c1cc(OC)cc(OC)c1` here?
**A.** Its Potency is inconclusive: 14.6 µM [falling, partial curve, poor fit].

**Q.** For `Cc1cccc2c1-c1sc(C(=O)N(C)c3cccc(Cl)c3)cc1CO2`, which Potency is on record?
**A.** The Potency was inconclusive: 29.1 µM [falling, single point].

**Q.** For `COc1ccc(C(CC(=O)Nc2ccc(C(C)=O)cc2)N2Cc3ccccc3C2=O)cc1` (centres undefined), which Potency is on record?
**A.** The Potency was inconclusive: 14.6 µM [activator, partial curve, poor fit].

**Q.** With `CN(C)CCCNC(=S)Nc1ccc(Oc2ccccc2)cc1` as the compound, how does the “activity change, negative = inhibition” value read?
**A.** Its value is inactive: 5.17%.

**Q.** With `CC(C)(C)c1ccc(S(=O)(=O)NCCc2ccncc2)cc1` as the compound, how does the Potency read?
**A.** The Potency was inconclusive: 9.2 µM [falling, partial curve].

**Q.** For `O=C(NCC(c1ccco1)N1CCN(c2ccc(F)cc2)CC1)C(=O)NC1CCCC1` (centres undefined), which “activity change, negative = inhibition” value is on record?
**A.** The value was inactive: -4.91%.

**Q.** For `Oc1ccc(C2C(c3ccccc3)=NN=C(c3ccc(Cl)cc3)N2O)c(O)c1` (centres undefined), which Potency is on record?
**A.** Its Potency is inconclusive: 11.6 µM [activator, partial curve, poor fit].

**Q.** Which “activity change, negative = inhibition” value does the source give for `COc1ccc(-c2sc(Nc3ccc(F)c(F)c3F)nc2CCC(=O)NN)cc1` here?
**A.** Its value is inactive: 5.78%.

**Q.** With `COc1ccc(N2CCOCC2)c(NC(=O)c2ccco2)c1` as the compound, how does the Potency read?
**A.** The Potency was inconclusive: 29.1 µM [activator, single point].

**Q.** With `CCn1c(SCC(=O)N2CCCCC2C)nc2c1c(=O)n(C)c(=O)n2C` (centres undefined) as the compound, how does the Potency read?
**A.** Its Potency is inconclusive: 3.26 µM [activator, full curve, poor fit].

**Q.** With `CSc1ccc(CCNC(=O)CCc2c(C)nc3ncnn3c2C)cc1` as the compound, how does the “activity change, negative = inhibition” value read?
**A.** Its value is inactive: 2.86%.

**Q.** For `Cn1c(SCc2ccc(C#N)cc2Cl)nc2ccccc21`, which Potency is on record?
**A.** Its Potency is inconclusive: 0.92 µM [activator, full curve].

**Q.** Which “activity change, negative = inhibition” value does the source give for `COC(=O)c1cc(S(=O)(=O)NCc2ccc(Br)cc2)c[nH]1` here?
**A.** Its value is inactive: 0%.

**Q.** For `CCCCC(CCCC)=N/N=C/c1c(O)n(CC)c2cc(C3=NNC(=O)CC3)ccc12`, which “activity change, negative = inhibition” value is on record?
**A.** The value was inactive: -7.06%.

**Q.** For `C=CCc1ccc(OCc2ccc(C(=O)OC)o2)c(OC)c1`, which Potency is on record?
**A.** Its Potency is inconclusive: 2.31 µM [activator, full curve].

**Q.** Which Potency does the source give for `Cc1cccc2c1cnn2C(=O)Nc1ccccc1Cl` here?
**A.** The Potency was inconclusive: 7.31 µM [activator, partial curve].

**Q.** With `Cn1c(=O)c2sccc2n2c(CCC(=O)NCc3ccc(Cl)cc3)nnc12` as the compound, how does the Potency read?
**A.** The Potency was inconclusive: 13 µM [falling, partial curve, poor fit].

**Q.** Which Potency does the source give for `Cn1nc(C(F)(F)F)c2cc(C(=O)Nc3ccc(F)cc3)sc21` here?
**A.** The Potency was inconclusive: 20.6 µM [falling, single point].

**Q.** For `O=C(Nc1cc(Cl)ccc1N1CCOCC1)c1ccco1`, which Potency is on record?
**A.** Its Potency is inconclusive: 8.2 µM [activator, partial curve, poor fit].

**Q.** With `COc1ccc(Nc2c(-c3cccc(O)c3)nc3cnccn23)cc1` as the compound, how does the activity change, negative = inhibition read?
**A.** The activity change, negative = inhibition was inactive: -9.64% [at 9.27 µM].

**Q.** With `CCOC(=O)N1CCc2c(sc3c2c(=O)n(-c2ccc(Cl)cc2)c(=O)n3CC(C)C)C1` as the compound, how does the Potency read?
**A.** Its Potency is inconclusive: 8.2 µM [falling, partial curve, poor fit].

**Q.** With `Cc1ccc(CN2C(=O)[C@@H]3Cc4c([nH]c5ccccc45)C(C)(C)N3C2=O)cc1` as the compound, how does the Potency read?
**A.** Its Potency is inconclusive: 16.4 µM [falling, single point].

**Q.** For `CC(C)c1ccc(NC(=O)CCNC(=O)Cn2cnc3ccccc3c2=O)cc1`, which Potency is on record?
**A.** Its Potency is inconclusive: 29.1 µM [falling, single point].

**Q.** For `O=C(CCCCCn1c(=S)[nH]c2ccsc2c1=O)NC1CCCCC1`, which Potency is on record?
**A.** The Potency was inconclusive: 6.51 µM [activator, single point].

**Q.** Which Potency does the source give for `CCOC(=O)c1c(Nc2ccc(OC)cc2)nnc(-c2ccccc2)c1-c1ccccc1` here?
**A.** The Potency was inconclusive: 16.4 µM [falling, single point].

**Q.** Which Potency does the source give for `Cc1onc(-c2ccccc2)c1C(=O)NC(=S)NNC(=O)c1ccccc1O` here?
**A.** Its Potency is inconclusive: 29.1 µM [falling, single point].

**Q.** With `CC1CCC2C(=O)N(c3ccc(Cc4ccncc4)cc3)C(=O)C2C1` (centres undefined) as the compound, how does the Potency read?
**A.** The Potency was active: 10.3 µM.

**Q.** Which Potency does the source give for `CCC(=O)NC(=S)Nc1ccc(NC(=S)NC(=O)c2ccccc2)cc1` here?
**A.** The Potency was inconclusive: 23.1 µM [falling, single point].

**Q.** For `CCOC(=O)C1=C(C)NC(=O)NC1c1ccc(-c2ccccc2F)o1` (centres undefined), which Potency is on record?
**A.** The Potency was inconclusive: 32.6 µM [falling, single point].

**Q.** With `CSc1ncccc1C(=O)OCC(=O)c1ccc(Br)s1` as the compound, how does the Potency read?
**A.** The Potency was inconclusive: 0.82 µM [falling, full curve, poor fit].

**Q.** For `CC(C)NC(=O)c1onc(CSc2cccc3ccccc23)c1C(=O)O`, which Potency is on record?
**A.** The Potency was inconclusive: 29.1 µM [activator, single point].

**Q.** For `CCOc1ccc(NC(=O)COc2ccc(S(=O)(=O)NC3CCCCC3)cc2)cc1`, which Potency is on record?
**A.** Its Potency is inconclusive: 16.4 µM [falling, partial curve].

**Q.** With `Cc1ccc(C(=O)CSc2nnc(Cn3nnc4ccccc43)n2C)cc1` as the compound, how does the Potency read?
**A.** Its Potency is inconclusive: 0.0046 µM [falling, full curve, poor fit].

**Q.** Which Potency does the source give for `O=C(Nc1cc(Cl)ccc1Cl)c1cc([N+](=O)[O-])cc(Br)c1O` here?
**A.** The Potency was inconclusive: 11.6 µM [activator, partial curve].

**Q.** With `CCCN(CC(=O)Nc1ccc(F)c(F)c1F)C(=O)c1ccc2c(c1)NC(=O)CS2` as the compound, how does the Potency read?
**A.** Its Potency is inconclusive: 20.6 µM [falling, partial curve].

**Q.** For `COc1ccc(-c2csc(=Nc3ccccc3)n2CCO)cc1F`, which Potency is on record?
**A.** The Potency was inconclusive: 18.4 µM [falling, single point].

**Q.** For `O=C(N/N=C/C=C/c1ccco1)c1cccs1`, which Potency is on record?
**A.** The Potency was inconclusive: 11.6 µM [activator, partial curve].

**Q.** Which Potency does the source give for `CC1CCCN(c2nc3ccccc3nc2C(C#N)S(=O)(=O)c2cccs2)C1` (centres undefined) here?
**A.** Its Potency is inconclusive: 18.4 µM [falling, single point].

**Q.** Which Potency does the source give for `CCCn1c(SCC(=O)Nc2cccc(C)n2)nc2c1c(=O)n(C)c(=O)n2C` here?
**A.** Its Potency is inconclusive: 18.4 µM [falling, partial curve, poor fit].

**Q.** For `COc1ccc(OC)c(CCNC(=O)CS(=O)(=O)Cc2nc(-c3ccccc3C)oc2C)c1`, which Potency is on record?
**A.** The Potency was inconclusive: 6.51 µM [falling, full curve].

**Q.** For `CN1CCN(Cc2cc(COCc3ccccc3)c3cccnc3c2O)CC1`, which Potency is on record?
**A.** Its Potency is inconclusive: 25.9 µM [falling, single point].

**Q.** With `NS(=O)(=O)c1ccc(NC(=O)Nc2ccc3c(c2)OCO3)cc1` as the compound, how does the Potency read?
**A.** Its Potency is inconclusive: 23.1 µM [activator, single point].

**Q.** Which Potency does the source give for `O=C(CCN1C(=O)CSc2ccccc21)Nc1cccc(C(F)(F)F)c1` here?
**A.** The Potency was inconclusive: 7.31 µM [falling, partial curve, poor fit].

**Q.** With `Cc1c(Cl)cccc1NC(=O)CCS(=O)(=O)c1ccc2c(c1)CC(=O)N2C` as the compound, how does the Potency read?
**A.** The Potency was inconclusive: 20.6 µM [activator, partial curve].

**Q.** With `Cc1nc(C(=O)NNC(=O)c2ccc(C(F)(F)F)cc2)cs1` as the compound, how does the Potency read?
**A.** Its Potency is inconclusive: 29.1 µM [falling, single point].

**Q.** With `CCN(CC)CCNC(=O)c1c2c(nc3ccccc13)C(=O)N(C1CCCCC1)C2` as the compound, how does the Potency read?
**A.** The Potency was inconclusive: 29.1 µM [activator, single point].

**Q.** With `COC(=O)c1ccc(COc2ccc(C)c(C)c2)o1` as the compound, how does the Potency read?
**A.** The Potency was inconclusive: 18.4 µM [activator, partial curve].

**Q.** For `COc1ccc(Cl)cc1C(=O)O/N=C(\N)c1ccccn1`, which Potency is on record?
**A.** The Potency was inconclusive: 7.31 µM [activator, partial curve].

**Q.** For `CCCCCCCCN1[C@@H](CC(C)=O)c2cc(C(F)(F)F)ccc2S1(=O)=O`, which Potency is on record?
**A.** The Potency was inconclusive: 20.6 µM [falling, single point].

**Q.** With `CCCCC(=O)N1CCN(c2nc3ccc(Br)cc3s2)CC1` as the compound, how does the Potency read?
**A.** Its Potency is inconclusive: 29.1 µM [falling, single point].

**Q.** Which “activity change, negative = inhibition” value does the source give for `O=C(c1ccc(COc2ccccc2)o1)N1CCN(S(=O)(=O)c2ccccc2Cl)CC1` here?
**A.** Its value is inactive: -18.8%.

**Q.** For `O=C(COC(=O)c1n[nH]c2ccccc12)Nc1cccc(S(=O)(=O)N2CCOCC2)c1`, which Potency is on record?
**A.** Its Potency is inconclusive: 5.8 µM [falling, partial curve, poor fit].

**Q.** With `O=C(c1ccc(Cl)c(S(=O)(=O)NCc2ccco2)c1)N1CCN(c2ccccc2F)CC1` as the compound, how does the Potency read?
**A.** Its Potency is inconclusive: 29.1 µM [falling, single point].

**Q.** Which Potency does the source give for `COc1ccc(NC(=O)c2oc3ccccc3c2NC(=O)Cc2coc3c(C)c(C)ccc23)cc1` here?
**A.** Its Potency is inconclusive: 7.31 µM [falling, partial curve].

**Q.** Which Potency does the source give for `Cc1ccc(CNC(=O)COC(=O)CCCOc2ccc(Cl)cc2Cl)cc1` here?
**A.** Its Potency is inconclusive: 29.1 µM [falling, partial curve, poor fit].

**Q.** With `Cc1cc(NC(=O)CCC(=O)N(CCC(C)C)C(C(=O)NC2CCCC2)c2ccccc2C)no1` (centres undefined) as the compound, how does the Potency read?
**A.** Its Potency is inconclusive: 23.1 µM [activator, single point].

**Q.** Which Potency does the source give for `O=C(Nc1ncc(Cc2ccccc2)s1)C1CCCO1` (centres undefined) here?
**A.** Its Potency is inconclusive: 2.06 µM [activator, partial curve, poor fit].

**Q.** Which Potency does the source give for `COc1cc(/C=N\NC(=O)c2cccnc2)ccc1OC(=O)c1ccccc1Cl` here?
**A.** Its Potency is active: 14.6 µM.

**Q.** For `COc1ccc(CC(=O)N2N=C(C)CC2(O)C(F)(F)F)cc1` (centres undefined), which Potency is on record?
**A.** The Potency was inconclusive: 4.11 µM [falling, single point].

**Q.** Which Potency does the source give for `Brc1cnc(OCc2ccccc2)nc1OCc1ccccc1` here?
**A.** Its Potency is inconclusive: 23.1 µM [activator, single point].

**Q.** For `Cc1ccc2nc(-c3ccncc3)[nH]c2c1`, which Potency is on record?
**A.** The Potency was inconclusive: 4.61 µM [activator, full curve, poor fit].

**Q.** With `COC(=O)c1ccccc1NC(=S)NC(=O)C1CCCCC1` as the compound, how does the “activity change, negative = inhibition” value read?
**A.** The value was inactive: 9.38%.

**Q.** With `COc1ccc(-n2nnnc2SCC(=O)Nc2ccc(OC)cc2OC)cc1` as the compound, how does the Potency read?
**A.** The Potency was inconclusive: 29.1 µM [falling, single point].

**Q.** Which Potency does the source give for `CCOc1ccccc1C(=O)N[C@H](C(=O)OCc1cc([N+](=O)[O-])cc2c1OCOC2)C(C)C` here?
**A.** The Potency was inconclusive: 29.1 µM [falling, single point].
